From patent US12419839B2, “Methods and compositions for targeted delivery of protein fragments” (Signablok, Inc., priority 2009, dated 2025)
Part of at least one peptide drawing is inferred or uncertain, most often the ends. Where no end group is shown, it is not given here.

Columns and labels:
[1] = test system: mice with LPS-induced septic shock; experiment: LPS-induced septic shock survival; assay type: in vivo; settings: C57BL/6 mice, intraperitoneal 1 h before LPS (30 mg/kg); free GF9 5 mg/kg dose, same dose of GF9 by HDL
mice with CIA = settings: i.p. daily for 14 days from day 24; MG11 and MG11-2G 25 mg/kg, sHDL-bound MG11 2.5 mg/kg; vs vehicle
[2] = test system: GM-CSF, IFNγ, IL-1β, IL-2, IL-6, IL-17, M-CSF and TNFα; experiment: serum cytokines in mice with CIA; assay type: in vivo; settings: serum on day 38; MG11 and MG11-2G 25 mg/kg, sHDL-bound MG11 2.5 mg/kg; vs vehicle

GLRILLLKV [free GF9, GLRILLLKV]
survival [1]: no effect

MWKTPTLKYFG [free MG11, MWKTPTLKYFG]
clinical severity of CIA (mice with CIA): strikingly ameliorates clinical severity of CIA
serum cytokine release [2]: significantly reduced serum cytokine release
